This is one part of the list. Single values are uncertain, as repeats are few or missing.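 The apoptosis fraction was the count of cleaved-PARP antibody-stained nuclei relative to all DNA-stained nuclei, imaged in 1,536-well plates. Screening doses were set so most cells survived, and baseline and induced cleaved-PARP levels vary greatly across cell lines.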
Key:
Assay in all cases: cleaved PARP positive nuclei fraction relative to DMSO control; melanoma cells; higher = more apoptosis
Details in all cases: library dose: low library concentration; 72 h
[1] = tested on: MZ2-MEL
[2] = tested on: MeWo
[3] = tested on: RPMI7951
[4] = tested on: RVH-421
[5] = tested on: SkMel28
[6] = tested on: SkMel30
[7] = tested on: SkMel5
[8] = tested on: UACC257
[9] = tested on: UACC62
[10] = tested on: WM115
[11] = tested on: WM1716
[12] = tested on: WM1745
[13] = tested on: WM3526
[14] = tested on: WM3619
[15] = tested on: WM451Lu

SMILES | cleaved PARP positive nuclei fraction [1] [%] | cleaved PARP positive nuclei fraction [2] [%] | cleaved PARP positive nuclei fraction [3] [%] | cleaved PARP positive nuclei fraction [4] [%] | cleaved PARP positive nuclei fraction [5] [%] | cleaved PARP positive nuclei fraction [6] [%] | cleaved PARP positive nuclei fraction [7] [%] | cleaved PARP positive nuclei fraction [8] [%] | cleaved PARP positive nuclei fraction [9] [%] | cleaved PARP positive nuclei fraction [10] [%] | cleaved PARP positive nuclei fraction [11] [%] | cleaved PARP positive nuclei fraction [12] [%] | cleaved PARP positive nuclei fraction [13] [%] | cleaved PARP positive nuclei fraction [14] [%] | cleaved PARP positive nuclei fraction [15] [%]
COc1ccc(COc2ccc(Cc3cnc(N)nc3N)cc2OC)cc1 + Cc1cc([N+](=O)[O-])ccc1NS(=O)(=O)c1cc(Cl)ccc1Cl [FH535] (first compound 1 µM, partner dose 1 µM) | 72.8 | 57.3 | 152 | 104 | 113 | 119 | 32.6 | 91.8 | 166 | 160 | 119 | 155 | 135 | 67.8 | 55.6
O=C(Nc1ccccc1)c1cc([N+](=O)[O-])ccc1Cl + Cn1cc(/C=C2\C(=O)Nc3cccnc32)c2ccccc21 [GW441756] (first compound 2 µM, partner dose 0.4 µM) | 73.1 | 52.4 | 92.6 | 112 | 86.9 | 48.7 | 36.8 | 61.2 | 496 | 80.1 | 52.9 | 109 | 58.3 | 80.5 | 54.7
COc1cc2c(Oc3ccc4[nH]c(C)cc4c3F)ncnc2cc1OCCCN1CCCC1 [cediranib] + COc1cc(N2CCC(N3CCN(C)CC3)CC2)ccc1Nc1ncc(Cl)c(Nc2ccccc2S(=O)(=O)C(C)C)n1 [NVP-TAE684] (first compound 0.4 µM, partner dose 0.08 µM) | 115 | 121 | 41.8 | 56.7 | 95.1 | 25.5 | 62.4 | 277 | 46.6 | 139 | 89.7 | 139 | 151 | 93.8 | 60.1
COc1ccc(-c2ccc3c(N4CCOCC4)nc(N4C[C@@H](C)O[C@@H](C)C4)nc3n2)cc1CO + COc1ccc(COc2ccc(Cc3cnc(N)nc3N)cc2OC)cc1 [GW2580] (first compound 0.02 µM, partner dose 1 µM) | 93.3 | 67.1 | 84.7 | 53 | 134 | 470 | 27.8 | 29.5 | 75.2 | 49.8 | 67.9 | 106 | 384 | 94.9 | 92.2
COc1cc2c(Oc3ccc4[nH]c(C)cc4c3F)ncnc2cc1OCCCN1CCCC1 [cediranib] + O=S(=O)(c1ccccc1)N(CC(F)(F)F)c1ccc(C(O)(C(F)(F)F)C(F)(F)F)cc1 [T0901317] (first compound 0.4 µM, partner dose 1.4 µM) | 87.1 | 103 | 71.3 | 145 | 74.6 | 127 | 68.4 | 121 | 197 | 86 | 70.9 | 117 | 119 | 93.9 | 127
Oc1nc(-c2ccc(C(F)(F)F)cc2)nc2c1CSCC2 + CC(C)CCN1c2nc(Nc3cc(F)c(O)c(F)c3)ncc2N(C)C(=O)C1C [BID1870] (first compound 2 µM, partner dose 0.2 µM) | 90.1 | 162 | 37.4 | 82 | 197 | 36.4 | 63.1 | 474 | 199 | 104 | 244 | 150 | 125 | 108 | 65.9
CCc1ccc(CCOc2ccc(CC3SC(=O)NC3=O)cc2)nc1 (stereo not given) [pioglitazone] + Cn1cc(/C=C2\C(=O)Nc3cccnc32)c2ccccc21 [GW441756] (first compound 2 µM, partner dose 0.4 µM) | 122 | 78.7 | 40.5 | 54.7 | 65.4 | 10.2 | 62.5 | 99.6 | 116 | 46.6 | 47.5 | 104 | 100 | 78 | 23.8
COc1ccc2c(c1)CCC1C2CCC2(C)C(NCCCCCCN3C(=O)C=CC3=O)CCC12 (stereo not given) + O=C(O)C(=O)Nc1sc2c(c1C(=O)O)CCNC2 [TCS401] (first compound 0.4 µM, partner dose 1.66667 µM) | 115 | 113 | 139 | 64.3 | 37.4 | 122 | 102 | 65.8 | 82.9 | 163 | 183 | 122 | 37.4 | 122 | 65.2
COc1cc2c(Oc3ccc4[nH]c(C)cc4c3F)ncnc2cc1OCCCN1CCCC1 [cediranib] + COc1ccc(COc2ccc(Cc3cnc(N)nc3N)cc2OC)cc1 [GW2580] (first compound 0.4 µM, partner dose 1 µM) | 86.4 | 80.7 | 45.2 | 107 | 100 | 21.2 | 58.7 | 93.8 | 72.3 | 104 | 104 | 104 | 35.7 | 74.6 | 70.5
CCc1ccc(CCOc2ccc(CC3SC(=O)NC3=O)cc2)nc1 (stereo not given) [pioglitazone] + c1cc(-c2cnn3cc(-c4ccc(OCCN5CCCCC5)cc4)cnc23)ccn1 [Dorsomorphin] (first compound 2 µM, partner dose 0.4 µM) | 174 | 25.6 | 88 | 222 | 196 | 38 | 33.1 | 117 | 147 | 52 | 142 | 103 | 78.4 | 67.1 | 29.6
O=C(Nc1ccccc1)c1cc([N+](=O)[O-])ccc1Cl + COC(=O)c1sccc1S(=O)(=O)Nc1ccc(Nc2ccccc2)cc1OC [GSK0660] (first compound 2 µM, partner dose 1 µM) | 111 | 113 | 158 | 28.4 | 149 | 54.7 | 116 | 92.6 | 330 | 223 | 170 | 113 | 75.6 | 94.8 | 75.3
N#Cc1c(O)c2c(-c3ccc(-c4ccccc4O)cc3)csc2[nH]c1=O + COc1ccc2c(c1)CCC1C2CCC2(C)C(NCCCCCCN3C(=O)C=CC3=O)CCC12 [U73122] (first compound 2 µM, partner dose 0.4 µM) | 173 | 106 | 95.2 | 81.3 | 149 | 72 | 59.7 | 156 | 404 | 138 | 112 | 92 | 57.9 | 90.5 | 252
N#Cc1c(O)c2c(-c3ccc(-c4ccccc4O)cc3)csc2[nH]c1=O + Oc1nc(-c2ccc(C(F)(F)F)cc2)nc2c1CSCC2 [XAV939] (first compound 2 µM, partner dose 2 µM) | 76.2 | 24.7 | 43 | 95.5 | 94.4 | 36.2 | 31.8 | 115 | 33.2 | 90.2 | 62.6 | 113 | 66.5 | 102 | 55.1
O=C1NC(=O)/C(=C/c2ccc(-c3ccc(F)cc3O)o2)S1 + COc1cc(N2CCC(N3CCN(C)CC3)CC2)ccc1Nc1ncc(Cl)c(Nc2ccccc2S(=O)(=O)C(C)C)n1 [NVP-TAE684] (first compound 1 µM, partner dose 0.08 µM) | 35.1 | 190 | 84.3 | 59.1 | 182 | 41.8 | 64 | 159 | 92 | 105 | 99.9 | 93.3 | 114 | 89.5 | 188
COc1ccc2c(c1)CCC1C2CCC2(C)C(NCCCCCCN3C(=O)C=CC3=O)CCC12 (stereo not given) + COc1cc2ncnc(Nc3ccc(Oc4ccccc4)cc3)c2cc1OC [SrcI1] (first compound 0.4 µM, partner dose 2 µM) | 73.4 | 116 | 59.2 | 76.9 | 154 | 50 | 27.3 | 139 | 71 | 59.7 | 66.1 | 114 | 154 | 111 | 56.8
CN(C)S(=O)(=O)c1ccc2c(c1)/C(=C/c1cc3c([nH]1)CCCC3)C(=O)N2 + COc1cc2ncnc(Nc3ccc(Oc4ccccc4)cc3)c2cc1OC [SrcI1] (first compound 0.4 µM, partner dose 2 µM) | 71.1 | 141 | 222 | 54.6 | 151 | 60.9 | 111 | 220 | 114 | 88.2 | 72.2 | 110 | 160 | 91.4 | 121
CN(C)S(=O)(=O)c1ccc2c(c1)/C(=C/c1cc3c([nH]1)CCCC3)C(=O)N2 + Oc1cc(-c2nc(-c3ccccc3)[nH]c2-c2ccncc2)ccc1Cl [L779450] (first compound 0.4 µM, partner dose 0.2 µM) | 79 | 88.4 | 43.8 | 85.8 | 276 | 62.6 | 121 | 100 | 54.8 | 148 | 47.6 | 122 | 39.4 | 94.2 | 184
CN(NC(=O)CC(=O)NN(C)C(=S)c1ccccc1)C(=S)c1ccccc1 + O=C1NC(=O)/C(=C/c2ccc(-c3ccc(F)cc3O)o2)S1 [AS252424] (first compound 0.006 µM, partner dose 1 µM) | 169 | 156 | 84.5 | 77.5 | 167 | 26 | 98.1 | 135 | 336 | 113 | 137 | 110 | 70.9 | 163 | 110
N#Cc1c(O)c2c(-c3ccc(-c4ccccc4O)cc3)csc2[nH]c1=O + COc1cc2ncnc(Nc3ccc(Oc4ccccc4)cc3)c2cc1OC [SrcI1] (first compound 2 µM, partner dose 2 µM) | 62.5 | 77.8 | 60 | 87.3 | 48.7 | 55.2 | 110 | 30.4 | 77.7 | 67 | 127 | 114 | 65.7 | 70.8 | 105

Record cards (already shown). Values in the order: cleaved PARP positive nuclei fraction [1] [%] | cleaved PARP positive nuclei fraction [2] [%] | cleaved PARP positive nuclei fraction [3] [%] | cleaved PARP positive nuclei fraction [4] [%] | cleaved PARP positive nuclei fraction [5] [%] | cleaved PARP positive nuclei fraction [6] [%] | cleaved PARP positive nuclei fraction [7] [%] | cleaved PARP positive nuclei fraction [8] [%] | cleaved PARP positive nuclei fraction [9] [%] | cleaved PARP positive nuclei fraction [10] [%] | cleaved PARP positive nuclei fraction [11] [%] | cleaved PARP positive nuclei fraction [12] [%] | cleaved PARP positive nuclei fraction [13] [%] | cleaved PARP positive nuclei fraction [14] [%] | cleaved PARP positive nuclei fraction [15] [%]
COc1cc2c(Oc3ccc4[nH]c(C)cc4c3F)ncnc2cc1OCCCN1CCCC1 [cediranib] + COc1ccc(COc2ccc(Cc3cnc(N)nc3N)cc2OC)cc1 [GW2580] (first compound 0.4 µM, partner dose 1 µM) in the list: 86.4 | 80.7 | 45.2 | 107 | 100 | 21.2 | 58.7 | 93.8 | 72.3 | 104 | 104 | 104 | 35.7 | 74.6 | 70.5
CCc1ccc(CCOc2ccc(CC3SC(=O)NC3=O)cc2)nc1 (stereo not given) [pioglitazone] + Cn1cc(/C=C2\C(=O)Nc3cccnc32)c2ccccc21 [GW441756] (first compound 2 µM, partner dose 0.4 µM) in the list: 122 | 78.7 | 40.5 | 54.7 | 65.4 | 10.2 | 62.5 | 99.6 | 116 | 46.6 | 47.5 | 104 | 100 | 78 | 23.8
